24 molecules from the supplement of paper PMC10077471 can be followed below.

Whole data set: some 1,900 compounds, median “excess over highest single agent (ExcessHSA) synergy score, 6x6 matrix” near -83, cut for the lowest 2% near -370. The list shows a part of the results.

The assay deals with NCI-H446. Put plainly: excess over highest single agent (ExcessHSA) synergy score, 6x6 matrix; higher = less synergy (more negative = stronger synergy). To be noted: 72 h; CellTiter-Glo viability.
For `C1Cc2[nH]nc(-c3nn[nH]n3)c2C1` + Cc1sc2c(c1C)C(c1ccc(Cl)cc1)=N[C@@H](CC(=O)OC(C)(C)C)c1nnc(C)n1-2 [NCGC00250412-19], the “excess over highest single agent” value was -99.5.

Regarding `O=C(Nc1cccc(Nc2ncc(Br)c(NCCc3cnc[nH]3)n2)c1)N1CCCC1` + Cc1sc2c(c1C)C(c1ccc(Cl)cc1)=N[C@@H](CC(=O)OC(C)(C)C)c1nnc(C)n1-2 [NCGC00250412-19], the “excess over highest single agent” value was -166.

Take `COc1nc(N)nc2c1ncn2[C@@H]1O[C@H](CO)[C@@H](O)[C@@H]1O` + Cc1sc2c(c1C)C(c1ccc(Cl)cc1)=N[C@@H](CC(=O)OC(C)(C)C)c1nnc(C)n1-2 [NCGC00250412-19]: the “excess over highest single agent” value was -136.

For `COc1ccc2c(Oc3ccc(NC(=O)c4c(C)n(CC(C)(C)O)n(-c5ccccc5)c4=O)cc3F)ccnc2c1` + Cc1sc2c(c1C)C(c1ccc(Cl)cc1)=N[C@@H](CC(=O)OC(C)(C)C)c1nnc(C)n1-2 [NCGC00250412-19], the “excess over highest single agent” value is -71.1.

Consider `OC[C@H]1O[C@@H](n2cnc3c2N=CNC[C@H]3O)C[C@@H]1O` + Cc1sc2c(c1C)C(c1ccc(Cl)cc1)=N[C@@H](CC(=O)OC(C)(C)C)c1nnc(C)n1-2 [NCGC00250412-19], for which the “excess over highest single agent” value was 11.

Turning to `CN(C)c1ccccc1CN1CCCN(Cc2ccccc2N(C)C)C1c1ccncc1` + Cc1sc2c(c1C)C(c1ccc(Cl)cc1)=N[C@@H](CC(=O)OC(C)(C)C)c1nnc(C)n1-2 [NCGC00250412-19], the “excess over highest single agent” value was -30.5.

As to `O=C(/C=C/C=C/c1ccc2c(c1)OCO2)N1CCCCC1` + Cc1sc2c(c1C)C(c1ccc(Cl)cc1)=N[C@@H](CC(=O)OC(C)(C)C)c1nnc(C)n1-2 [NCGC00250412-19], the “excess over highest single agent” value is 24.3.

`O=c1c2ccccc2nc2n1CCc1c-2[nH]c2ccccc12` + Cc1sc2c(c1C)C(c1ccc(Cl)cc1)=N[C@@H](CC(=O)OC(C)(C)C)c1nnc(C)n1-2 [NCGC00250412-19]: the “excess over highest single agent” value was -26.4.

Turning to `CN(C)c1ccc2cc(C(=O)N[C@@H](CCCN=C(N)CCl)C(=O)NCc3ccccc3)ccc2c1` + Cc1sc2c(c1C)C(c1ccc(Cl)cc1)=N[C@@H](CC(=O)OC(C)(C)C)c1nnc(C)n1-2 [NCGC00250412-19], the “excess over highest single agent” value was -202.

Turning to `CCc1c(C(=O)C(N)=O)c2c(OCC(=O)O)cccc2n1Cc1ccccc1` + Cc1sc2c(c1C)C(c1ccc(Cl)cc1)=N[C@@H](CC(=O)OC(C)(C)C)c1nnc(C)n1-2 [NCGC00250412-19], the “excess over highest single agent” value came to 19.9.

Take `O=C1NC(=O)[C@@H](c2cn3c4c(cccc24)CCC3)[C@@H]1c1c[nH]c2ccccc12` + Cc1sc2c(c1C)C(c1ccc(Cl)cc1)=N[C@@H](CC(=O)OC(C)(C)C)c1nnc(C)n1-2 [NCGC00250412-19]: the “excess over highest single agent” value was -202.

Turning to `CCc1cnn2c(NCc3ccc[n+]([O-])c3)cc(N3CCCC[C@H]3CCO)nc12` + Cc1sc2c(c1C)C(c1ccc(Cl)cc1)=N[C@@H](CC(=O)OC(C)(C)C)c1nnc(C)n1-2 [NCGC00250412-19], the “excess over highest single agent” value was -18.6.

Consider `C[C@@]1(c2cc(-c3cncnc3)c(F)cc2F)CCSC(N)=N1` + Cc1sc2c(c1C)C(c1ccc(Cl)cc1)=N[C@@H](CC(=O)OC(C)(C)C)c1nnc(C)n1-2 [NCGC00250412-19], for which the “excess over highest single agent” value was 55.3.

As for `c1ccc2[nH]c(-c3cscn3)nc2c1` + Cc1sc2c(c1C)C(c1ccc(Cl)cc1)=N[C@@H](CC(=O)OC(C)(C)C)c1nnc(C)n1-2 [NCGC00250412-19], the “excess over highest single agent” value was -241.

Regarding `Cn1cc(-c2ccc3nnc(C(F)(F)c4ccc5ncccc5c4)n3n2)cn1` + Cc1sc2c(c1C)C(c1ccc(Cl)cc1)=N[C@@H](CC(=O)OC(C)(C)C)c1nnc(C)n1-2 [NCGC00250412-19], the “excess over highest single agent” value was -69.2.

`O=C(Nc1ncc(-c2cc(C(F)F)nn2-c2c(Cl)cccc2Cl)s1)C1CC1` + Cc1sc2c(c1C)C(c1ccc(Cl)cc1)=N[C@@H](CC(=O)OC(C)(C)C)c1nnc(C)n1-2 [NCGC00250412-19]: the “excess over highest single agent” value was -206.

For the molecule `CNC(=O)Nc1ccc(-c2nc(N3CC4CCC(C3)O4)c3cnn(C4CCC5(CC4)OCCO5)c3n2)cc1` + Cc1sc2c(c1C)C(c1ccc(Cl)cc1)=N[C@@H](CC(=O)OC(C)(C)C)c1nnc(C)n1-2 [NCGC00250412-19], the “excess over highest single agent” value was -274.

Regarding `CN1CC2c3ccccc3Oc3ccc(Cl)cc3C2C1` (centres undefined) + Cc1sc2c(c1C)C(c1ccc(Cl)cc1)=N[C@@H](CC(=O)OC(C)(C)C)c1nnc(C)n1-2 [NCGC00250412-19], the “excess over highest single agent” value was -289.

Turning to `COC1=C2C[C@@H](C)C[C@H](OC)[C@H](O)[C@@H](C)/C=C(\C)[C@H](OC(N)=O)[C@@H](OC)/C=C\C=C(/C)C(=O)NC(=CC1=O)C2=O` + Cc1sc2c(c1C)C(c1ccc(Cl)cc1)=N[C@@H](CC(=O)OC(C)(C)C)c1nnc(C)n1-2 [NCGC00250412-19], the “excess over highest single agent” value is -170.

Turning to `COc1ccc(-c2cc(=O)c3c(O)cc(O[C@@H]4O[C@H](CO[C@@H]5O[C@@H](C)[C@H](O)[C@@H](O)[C@H]5O)[C@@H](O)[C@H](O)[C@H]4O)cc3o2)cc1O` + Cc1sc2c(c1C)C(c1ccc(Cl)cc1)=N[C@@H](CC(=O)OC(C)(C)C)c1nnc(C)n1-2 [NCGC00250412-19], the “excess over highest single agent” value is -123.

In the case of `COc1cc(Nc2ncc(F)c(Nc3ccc4c(n3)N(COP(=O)(O)O)C(=O)C(C)(C)O4)n2)cc(OC)c1OC` + Cc1sc2c(c1C)C(c1ccc(Cl)cc1)=N[C@@H](CC(=O)OC(C)(C)C)c1nnc(C)n1-2 [NCGC00250412-19], the “excess over highest single agent” value was -95.5.

Consider `CCCCCCCN(CC)CCCC(O)c1ccc(NS(C)(=O)=O)cc1` (centres undefined) + Cc1sc2c(c1C)C(c1ccc(Cl)cc1)=N[C@@H](CC(=O)OC(C)(C)C)c1nnc(C)n1-2 [NCGC00250412-19], for which the “excess over highest single agent” value is 19.

As for `Cc1cccc(CN2CCN(C(c3ccccc3)c3ccc(Cl)cc3)CC2)c1` (centres undefined) + Cc1sc2c(c1C)C(c1ccc(Cl)cc1)=N[C@@H](CC(=O)OC(C)(C)C)c1nnc(C)n1-2 [NCGC00250412-19], the “excess over highest single agent” value is -145.

As to `COc1cnc(NS(=O)(=O)c2ccc(N)cc2)nc1` + Cc1sc2c(c1C)C(c1ccc(Cl)cc1)=N[C@@H](CC(=O)OC(C)(C)C)c1nnc(C)n1-2 [NCGC00250412-19], the “excess over highest single agent” value came out at 272.
